Laboratory results: article PMC6389977
These are yes or no findings as the source states them, for the method shown. For some assays here: Binding seen in cells or lysates may run through a third protein. Some entries that bind do so weakly or less than the wild type.

Chains of the proteins cited; added tags and fusions are not shown.
UniProt P04406: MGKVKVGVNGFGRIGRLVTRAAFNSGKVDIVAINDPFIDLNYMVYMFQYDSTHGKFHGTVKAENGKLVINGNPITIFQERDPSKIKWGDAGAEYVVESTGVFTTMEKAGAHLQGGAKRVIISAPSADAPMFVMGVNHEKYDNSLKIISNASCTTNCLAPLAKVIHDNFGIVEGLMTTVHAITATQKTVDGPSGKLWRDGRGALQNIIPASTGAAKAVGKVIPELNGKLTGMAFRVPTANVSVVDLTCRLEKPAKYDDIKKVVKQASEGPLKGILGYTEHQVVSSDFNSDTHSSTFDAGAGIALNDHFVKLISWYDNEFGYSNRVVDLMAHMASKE

Experiments:
[1] = molecular target: GAPDH of Huh7.5.1 cells (human (endogenous in Huh7.5.1)) (UniProt P04406); assay: co-IP
[2] = molecular target: recombinant full-length DENV2 NS3 protein (dengue virus 2, New Guinea C (NGC) strain) (UniProt P14340); assay: ELISA; both purified

With “DENV2 NS3 protein in DENV2-infected Huh7.5.1 cells (from UniProt P29990 1476-2093)” the binding [1] was “binds”.
For “purified recombinant human GAPDH protein (from UniProt P04406 1-335) (enzyme)”, the binding [2] was “binds”.
